Here are results for 2 molecules from publication PMC8322311.

The target in assay [1] is T1, Flag-SLITRK5 (UniProt O94991).
T1 sequence: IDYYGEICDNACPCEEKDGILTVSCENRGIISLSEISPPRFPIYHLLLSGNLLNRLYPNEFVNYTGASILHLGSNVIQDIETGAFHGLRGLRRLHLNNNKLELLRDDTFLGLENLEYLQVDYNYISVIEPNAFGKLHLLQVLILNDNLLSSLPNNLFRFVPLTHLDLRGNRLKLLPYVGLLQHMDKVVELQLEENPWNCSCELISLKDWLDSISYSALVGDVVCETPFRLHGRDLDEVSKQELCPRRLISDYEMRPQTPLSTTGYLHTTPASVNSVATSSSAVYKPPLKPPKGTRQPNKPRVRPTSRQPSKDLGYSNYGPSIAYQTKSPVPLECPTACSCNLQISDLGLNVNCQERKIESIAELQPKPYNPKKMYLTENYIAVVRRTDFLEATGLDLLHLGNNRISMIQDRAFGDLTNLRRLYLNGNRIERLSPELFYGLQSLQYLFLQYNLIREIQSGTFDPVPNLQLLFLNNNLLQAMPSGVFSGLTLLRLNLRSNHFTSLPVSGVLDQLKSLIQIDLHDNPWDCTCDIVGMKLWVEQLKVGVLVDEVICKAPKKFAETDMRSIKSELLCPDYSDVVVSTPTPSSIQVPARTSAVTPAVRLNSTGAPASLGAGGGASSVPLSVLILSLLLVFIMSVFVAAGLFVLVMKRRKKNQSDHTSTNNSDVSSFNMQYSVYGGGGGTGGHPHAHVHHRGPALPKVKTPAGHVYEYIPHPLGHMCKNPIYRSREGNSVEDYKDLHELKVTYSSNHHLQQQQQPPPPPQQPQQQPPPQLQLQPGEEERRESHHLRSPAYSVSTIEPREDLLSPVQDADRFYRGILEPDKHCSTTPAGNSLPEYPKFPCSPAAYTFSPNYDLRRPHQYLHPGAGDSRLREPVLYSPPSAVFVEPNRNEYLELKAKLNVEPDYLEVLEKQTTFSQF
Kind of assay: co-IP; C3H10T1/2 cells transfected with Flag-SLITRK5 and HA-PTCH1, with or without SHH (Supplementary Fig. 3e); Flag or HA agarose.

Assay [2] addresses T1, Flag-SLITRK5. Kind of assay: co-IP; HEK293T cells transfected with Flag-SLITRK5 and HA-PTCH1, with BSA or SHH treatment; Flag or HA agarose; immunoblot.
Assay [3] has as its target T2, HA-PTCH1 (UniProt Q13635).
T2 sequence: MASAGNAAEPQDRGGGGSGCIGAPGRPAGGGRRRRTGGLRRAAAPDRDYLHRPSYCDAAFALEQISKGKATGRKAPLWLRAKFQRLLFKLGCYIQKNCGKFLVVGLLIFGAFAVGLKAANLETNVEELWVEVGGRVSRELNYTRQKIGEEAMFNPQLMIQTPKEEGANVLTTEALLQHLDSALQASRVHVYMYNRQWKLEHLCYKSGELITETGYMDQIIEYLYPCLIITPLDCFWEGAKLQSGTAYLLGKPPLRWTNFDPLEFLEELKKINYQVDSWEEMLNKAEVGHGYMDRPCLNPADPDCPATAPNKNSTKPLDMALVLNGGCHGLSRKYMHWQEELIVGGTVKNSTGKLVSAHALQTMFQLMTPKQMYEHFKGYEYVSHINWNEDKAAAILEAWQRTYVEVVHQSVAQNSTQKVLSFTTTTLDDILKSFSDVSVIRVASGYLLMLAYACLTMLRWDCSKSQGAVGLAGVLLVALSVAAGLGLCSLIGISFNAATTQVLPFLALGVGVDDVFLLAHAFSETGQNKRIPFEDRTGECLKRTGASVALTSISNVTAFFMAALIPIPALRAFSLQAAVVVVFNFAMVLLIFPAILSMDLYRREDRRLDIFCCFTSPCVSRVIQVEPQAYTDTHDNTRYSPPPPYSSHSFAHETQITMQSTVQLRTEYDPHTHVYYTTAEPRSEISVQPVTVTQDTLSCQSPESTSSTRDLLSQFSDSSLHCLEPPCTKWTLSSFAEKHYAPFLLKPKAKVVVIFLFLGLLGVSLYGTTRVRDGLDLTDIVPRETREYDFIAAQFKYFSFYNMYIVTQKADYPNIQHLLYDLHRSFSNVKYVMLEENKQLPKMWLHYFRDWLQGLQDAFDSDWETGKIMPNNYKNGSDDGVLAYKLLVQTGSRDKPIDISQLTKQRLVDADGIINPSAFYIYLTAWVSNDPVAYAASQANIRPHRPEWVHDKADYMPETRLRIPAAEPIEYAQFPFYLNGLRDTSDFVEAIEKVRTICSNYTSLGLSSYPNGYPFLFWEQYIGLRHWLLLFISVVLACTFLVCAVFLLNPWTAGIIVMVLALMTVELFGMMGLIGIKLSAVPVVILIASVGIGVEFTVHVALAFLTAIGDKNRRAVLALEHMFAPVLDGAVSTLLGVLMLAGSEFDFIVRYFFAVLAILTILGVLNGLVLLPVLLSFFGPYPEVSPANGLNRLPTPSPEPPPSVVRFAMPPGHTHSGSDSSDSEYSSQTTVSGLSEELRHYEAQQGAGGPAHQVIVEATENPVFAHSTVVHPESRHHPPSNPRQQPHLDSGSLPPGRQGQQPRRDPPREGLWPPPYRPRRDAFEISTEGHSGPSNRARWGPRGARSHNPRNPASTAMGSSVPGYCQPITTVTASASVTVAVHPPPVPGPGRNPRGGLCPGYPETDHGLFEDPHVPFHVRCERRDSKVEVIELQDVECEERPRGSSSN
The description is as above.

These are yes or no findings as the source states them, for the method shown. In cells and extracts the contact can be indirect. Some binding calls cover weakened binding; strength is not graded here. Where a sequence is shown, tags or fusion partners need not be part of it.

B1: HA-PTCH1 (receptor, UniProt Q13635 1-1447)
chain: MASAGNAAEPQDRGGGGSGCIGAPGRPAGGGRRRRTGGLRRAAAPDRDYLHRPSYCDAAFALEQISKGKATGRKAPLWLRAKFQRLLFKLGCYIQKNCGKFLVVGLLIFGAFAVGLKAANLETNVEELWVEVGGRVSRELNYTRQKIGEEAMFNPQLMIQTPKEEGANVLTTEALLQHLDSALQASRVHVYMYNRQWKLEHLCYKSGELITETGYMDQIIEYLYPCLIITPLDCFWEGAKLQSGTAYLLGKPPLRWTNFDPLEFLEELKKINYQVDSWEEMLNKAEVGHGYMDRPCLNPADPDCPATAPNKNSTKPLDMALVLNGGCHGLSRKYMHWQEELIVGGTVKNSTGKLVSAHALQTMFQLMTPKQMYEHFKGYEYVSHINWNEDKAAAILEAWQRTYVEVVHQSVAQNSTQKVLSFTTTTLDDILKSFSDVSVIRVASGYLLMLAYACLTMLRWDCSKSQGAVGLAGVLLVALSVAAGLGLCSLIGISFNAATTQVLPFLALGVGVDDVFLLAHAFSETGQNKRIPFEDRTGECLKRTGASVALTSISNVTAFFMAALIPIPALRAFSLQAAVVVVFNFAMVLLIFPAILSMDLYRREDRRLDIFCCFTSPCVSRVIQVEPQAYTDTHDNTRYSPPPPYSSHSFAHETQITMQSTVQLRTEYDPHTHVYYTTAEPRSEISVQPVTVTQDTLSCQSPESTSSTRDLLSQFSDSSLHCLEPPCTKWTLSSFAEKHYAPFLLKPKAKVVVIFLFLGLLGVSLYGTTRVRDGLDLTDIVPRETREYDFIAAQFKYFSFYNMYIVTQKADYPNIQHLLYDLHRSFSNVKYVMLEENKQLPKMWLHYFRDWLQGLQDAFDSDWETGKIMPNNYKNGSDDGVLAYKLLVQTGSRDKPIDISQLTKQRLVDADGIINPSAFYIYLTAWVSNDPVAYAASQANIRPHRPEWVHDKADYMPETRLRIPAAEPIEYAQFPFYLNGLRDTSDFVEAIEKVRTICSNYTSLGLSSYPNGYPFLFWEQYIGLRHWLLLFISVVLACTFLVCAVFLLNPWTAGIIVMVLALMTVELFGMMGLIGIKLSAVPVVILIASVGIGVEFTVHVALAFLTAIGDKNRRAVLALEHMFAPVLDGAVSTLLGVLMLAGSEFDFIVRYFFAVLAILTILGVLNGLVLLPVLLSFFGPYPEVSPANGLNRLPTPSPEPPPSVVRFAMPPGHTHSGSDSSDSEYSSQTTVSGLSEELRHYEAQQGAGGPAHQVIVEATENPVFAHSTVVHPESRHHPPSNPRQQPHLDSGSLPPGRQGQQPRRDPPREGLWPPPYRPRRDAFEISTEGHSGPSNRARWGPRGARSHNPRNPASTAMGSSVPGYCQPITTVTASASVTVAVHPPPVPGPGRNPRGGLCPGYPETDHGLFEDPHVPFHVRCERRDSKVEVIELQDVECEERPRGSSSN
As for B1, the binding entry in assay [1] and in assay [2] was “binds” throughout.

B2: Flag-SLITRK5 (receptor, UniProt O94991 41-958)
chain: IDYYGEICDNACPCEEKDGILTVSCENRGIISLSEISPPRFPIYHLLLSGNLLNRLYPNEFVNYTGASILHLGSNVIQDIETGAFHGLRGLRRLHLNNNKLELLRDDTFLGLENLEYLQVDYNYISVIEPNAFGKLHLLQVLILNDNLLSSLPNNLFRFVPLTHLDLRGNRLKLLPYVGLLQHMDKVVELQLEENPWNCSCELISLKDWLDSISYSALVGDVVCETPFRLHGRDLDEVSKQELCPRRLISDYEMRPQTPLSTTGYLHTTPASVNSVATSSSAVYKPPLKPPKGTRQPNKPRVRPTSRQPSKDLGYSNYGPSIAYQTKSPVPLECPTACSCNLQISDLGLNVNCQERKIESIAELQPKPYNPKKMYLTENYIAVVRRTDFLEATGLDLLHLGNNRISMIQDRAFGDLTNLRRLYLNGNRIERLSPELFYGLQSLQYLFLQYNLIREIQSGTFDPVPNLQLLFLNNNLLQAMPSGVFSGLTLLRLNLRSNHFTSLPVSGVLDQLKSLIQIDLHDNPWDCTCDIVGMKLWVEQLKVGVLVDEVICKAPKKFAETDMRSIKSELLCPDYSDVVVSTPTPSSIQVPARTSAVTPAVRLNSTGAPASLGAGGGASSVPLSVLILSLLLVFIMSVFVAAGLFVLVMKRRKKNQSDHTSTNNSDVSSFNMQYSVYGGGGGTGGHPHAHVHHRGPALPKVKTPAGHVYEYIPHPLGHMCKNPIYRSREGNSVEDYKDLHELKVTYSSNHHLQQQQQPPPPPQQPQQQPPPQLQLQPGEEERRESHHLRSPAYSVSTIEPREDLLSPVQDADRFYRGILEPDKHCSTTPAGNSLPEYPKFPCSPAAYTFSPNYDLRRPHQYLHPGAGDSRLREPVLYSPPSAVFVEPNRNEYLELKAKLNVEPDYLEVLEKQTTFSQF
Turning to B2, in assay [3], the binding result is “binds”.
